PubChem BioAssay AID504764, Drosophila RNAi Screening Center – 2011

Aim: 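Knock-downs that raise or lower a Notch target reporter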 (primary screen)
Cells: Drosophila Kc167 cells
Knock-down reagent: long dsRNA against Drosophila genes
Time to read-out: about 5 days (4 days dsRNA, then 24 h after transfection)
Challenge: transfection of constitutively active membrane-tethered Notch lacking the extracellular domain, read 24 h later
Read-out: 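Light from a Notch-responsive E(spl)m3 luciferase reporter under active Notch, with control-promoter and no-Notch reporter wells to normalise; raw counts from paired wells a and b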
Reading the numbers: induced reporter light, run 1, well a and induced reporter light, run 1, well b: higher = more light from the Notch target reporter with active Notch; control promoter light, run 1, well a and control promoter light, run 1, well b: higher = more light from the viral control promoter (cell number, transfection, viability); uninduced reporter light, run 1, well a: higher = more light from the Notch target reporter without active Notch
Rule for the call: 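Hit if the duplicate-averaged log2 ratio of induced to control-promoter light gives a plate-wise z beyond ±2, or induced to uninduced beyond ±1.8; weak-control or discordant-duplicate wells dropped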
Meaning of the calls: active = modifier hit (raised or lowered Notch signal); inactive = not a hit
The deposit covers about 22,000 reagents; below is an unselected part of those with a known target gene and a result. Over the whole deposit, 403 (1.9%) are marked active. 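Unnormalised raw counts per well; ratio z-scores behind the hit calls and whether each hit raises or lowers signal are not deposited.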 Reagent sequences are not shown. Not given: the amount of reagent.

| target gene | dsRNA | induced reporter light, run 1, well a | induced reporter light, run 1, well b | control promoter light, run 1, well a | control promoter light, run 1, well b | uninduced reporter light, run 1, well a | Call |
| --- | --- | --- | --- | --- | --- | --- | --- |
| CG30075 (GeneID 246437) | DRSC05484 | 2.06e5 | 2.74e5 | 2.65e5 | 2.71e5 | 18830 | inactive |
| Vps13B (GeneID 43550) | DRSC15060 | 1.52e5 | 1.39e5 | 1.82e5 | 1.50e5 | 9900 | inactive |
| CG15571 (GeneID 31365) | DRSC18059 | 1.34e5 | 1.37e5 | 2.89e5 | 2.31e5 | 10785 | inactive |
| CG34030 (GeneID 3885636) | DRSC08866 | 1.57e5 | 1.62e5 | 1.93e5 | 2.17e5 | 11380 | inactive |
| haf (GeneID 33339) | DRSC00381 | 1.70e5 | 1.62e5 | 1.03e5 | 55510 | 10250 | inactive |
| CG1513 (GeneID 36028) | DRSC05194 | 76080 | 81190 | 92490 | 86985 | 5030 | inactive |
| CG1513 (GeneID 36028) | DRSC06553 | 1.53e5 | 1.73e5 | 2.27e5 | 1.77e5 | 11278 | inactive |
| CG1513 (GeneID 36028) | DRSC06554 | 1.46e5 | 1.56e5 | 2.25e5 | 2.02e5 | 14875 | inactive |
| PsGEF (retired record) (GeneID 31225) | DRSC18600 | 1.11e5 | 1.05e5 | 1.46e5 | 1.58e5 | 7165 | inactive |
| PsGEF (retired record) (GeneID 31225) | DRSC18601 | 50785 | 49005 | 84030 | 76750 | 6845 | inactive |
| DptA (GeneID 37183) | DRSC07404 | 1.15e5 | 96670 | 1.04e5 | 1.25e5 | 1040 | inactive |
| SPoCk (GeneID 40495) | DRSC11675 | 1.20e5 | 82110 | 1.21e5 | 1.21e5 | 6732 | inactive |
| SPoCk (GeneID 40495) | DRSC11706 | 66410 | 70895 | 78415 | 90325 | 6210 | inactive |
| SPoCk (GeneID 40495) | DRSC11844 | 1.54e5 | 97155 | 1.35e5 | 1.03e5 | 9310 | inactive |
| SPoCk (GeneID 40495) | DRSC11845 | 1.25e5 | 1.32e5 | 1.48e5 | 1.20e5 | 8240 | inactive |
| Sema5c (GeneID 37066) | DRSC11279 | 50345 | 50035 | 62005 | 80550 | 2775 | inactive |
| lbk (GeneID 36788) | DRSC07178 | 75015 | 86170 | 1.37e5 | 1.63e5 | 7240 | inactive |
| CG34002 (GeneID 3885644) | DRSC09512 | 1.78e5 | 1.50e5 | 2.19e5 | 2.36e5 | 17305 | inactive |
| CG34002 (GeneID 3885644) | DRSC11953 | 1.73e5 | 2.05e5 | 3.09e5 | 2.70e5 | 17450 | inactive |
| CG32631 (GeneID 32311) | DRSC19768 | 1.84e5 | 1.83e5 | 2.79e5 | 2.49e5 | 13160 | inactive |
| CG12299 (GeneID 34483) | DRSC02158 | 2.41e5 | 2.05e5 | 2.19e5 | 2.53e5 | 26510 | inactive |
| Mcm3 (GeneID 31449) | DRSC18679 | 1.98e5 | 1.53e5 | 2.30e5 | 1.95e5 | 14900 | inactive |
| Sox100B (GeneID 45039) | DRSC15090 | 82545 | 69870 | 1.14e5 | 1.14e5 | 7085 | inactive |
| Sox100B (GeneID 45039) | DRSC16866 | 4135 | 3865 | 8635 | 8795 | 470 | inactive |
| eIF3d1 (GeneID 42789) | DRSC16938 | 32460 | 28520 | 30925 | 28085 | 1760 | inactive |
| CG13558 (GeneID 37719) | DRSC04196 | 1.79e5 | 1.42e5 | 1.55e5 | 1.43e5 | 11415 | inactive |
| CG18094 (GeneID 35232) | DRSC02655 | 76580 | 33940 | 43300 | 49940 | 3045 | inactive |
| CG14676 (GeneID 40729) | DRSC12262 | 98750 | 1.14e5 | 1.38e5 | 99200 | 13485 | inactive |
| CG16952 (GeneID 32546) | DRSC19759 | 86270 | 73605 | 77270 | 77580 | 11645 | inactive |
| CR11700 (retired record) (GeneID 5740245) | DRSC17794 | 8880 | 5790 | 13150 | 15538 | 470 | inactive |
| Ing3 (GeneID 32853) | DRSC20002 | 1.42e5 | 1.64e5 | 1.41e5 | 90230 | 12320 | inactive |
| CG7453 (GeneID 32903) | DRSC20046 | 1.05e5 | 1.19e5 | 1.32e5 | 1.97e5 | 10870 | inactive |
| CG3815 (GeneID 31571) | DRSC18324 | 2.09e5 | 1.85e5 | 2.10e5 | 1.99e5 | 14815 | inactive |
| nito (GeneID 35756) | DRSC05943 | 1.60e5 | 1.98e5 | 1.19e5 | 1.09e5 | 17910 | active |
| mu2 (GeneID 38257) | DRSC08726 | 97215 | 93040 | 1.79e5 | 1.86e5 | 10360 | inactive |
| Edem2 (GeneID 34714) | DRSC02877 | 1.84e5 | 1.83e5 | 1.68e5 | 2.08e5 | 18440 | inactive |
| CG13428 (GeneID 37317) | DRSC06390 | 1.19e5 | 77360 | 1.15e5 | 1.19e5 | 6035 | inactive |
| CG5883 (GeneID 39352) | DRSC10552 | 1.56e5 | 1.63e5 | 1.94e5 | 2.32e5 | 7435 | inactive |
| CG1999 (GeneID 31671) | DRSC18199 | 2.65e5 | 2.23e5 | 2.91e5 | 2.80e5 | 14250 | inactive |
| CG7140 (GeneID 40445) | DRSC11799 | 2.21e5 | 1.42e5 | 1.74e5 | 1.59e5 | 13235 | inactive |
| CR42546 (GeneID 8674079) | DRSC03711 | 65310 | 51225 | 58220 | 84100 | 2365 | inactive |
| CG30065 (GeneID 246431) | DRSC05420 | 1.79e5 | 2.01e5 | 2.77e5 | 2.42e5 | 18295 | inactive |
| Deaf1 (GeneID 40164) | DRSC11143 | 1.00e5 | 1.06e5 | 96340 | 1.01e5 | 6685 | inactive |
| Deaf1 (GeneID 40164) | DRSC22786 | – | – | – | – | – | active |
| CG6873 (GeneID 32861) | DRSC20014 | 92210 | 1.13e5 | 1.17e5 | 1.33e5 | 9920 | inactive |
| Galphaq (GeneID 36384) | DRSC07432 | 1.49e5 | 1.42e5 | 1.58e5 | 1.62e5 | 14225 | inactive |
| Cyp4d2 (GeneID 31192) | DRSC18458 | 1.82e5 | 1.90e5 | 3.02e5 | 2.53e5 | 12385 | inactive |
| Cyp312a1 (GeneID 40005) | DRSC11128 | 1.58e5 | 1.55e5 | 2.14e5 | 1.99e5 | 10635 | inactive |
| CG14963 (GeneID 38383) | DRSC08422 | 1.17e5 | 1.32e5 | 1.92e5 | 2.42e5 | 7780 | inactive |
| sro (GeneID 43512) | DRSC14469 | 85055 | 80260 | 1.41e5 | 1.36e5 | 8410 | inactive |

Records listed so far called active (2):
| target gene | dsRNA | induced reporter light, run 1, well a | induced reporter light, run 1, well b | control promoter light, run 1, well a | control promoter light, run 1, well b | uninduced reporter light, run 1, well a | Call |
| --- | --- | --- | --- | --- | --- | --- | --- |
| nito (GeneID 35756) | DRSC05943 | 1.60e5 | 1.98e5 | 1.19e5 | 1.09e5 | 17910 | active |
| Deaf1 (GeneID 40164) | DRSC22786 | – | – | – | – | – | active |
